Paper doi:10.1101/2021.12.08.471875
These are yes or no findings as the source states them, for the method shown. In cells and extracts the contact can be indirect. A yes stands for co-enrichment or nearness to the bait. Other partners may have been found. For some of these results: A no says only that the protein was not detected with the bait. One block for each molecule: values may come before it.

Protein sequences, listed by entry. Tags and fused reporters are not part of them.
UniProt P28632: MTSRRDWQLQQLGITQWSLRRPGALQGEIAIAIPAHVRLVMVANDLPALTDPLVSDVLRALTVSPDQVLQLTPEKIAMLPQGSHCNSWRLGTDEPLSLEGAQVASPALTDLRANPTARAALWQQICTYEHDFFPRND
UniProt P0AGE0: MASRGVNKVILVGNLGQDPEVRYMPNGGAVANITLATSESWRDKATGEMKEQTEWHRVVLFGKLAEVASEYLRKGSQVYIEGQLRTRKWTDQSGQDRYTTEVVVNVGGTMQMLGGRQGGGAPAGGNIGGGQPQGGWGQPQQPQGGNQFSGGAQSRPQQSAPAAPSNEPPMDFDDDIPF
UniProt P0A988: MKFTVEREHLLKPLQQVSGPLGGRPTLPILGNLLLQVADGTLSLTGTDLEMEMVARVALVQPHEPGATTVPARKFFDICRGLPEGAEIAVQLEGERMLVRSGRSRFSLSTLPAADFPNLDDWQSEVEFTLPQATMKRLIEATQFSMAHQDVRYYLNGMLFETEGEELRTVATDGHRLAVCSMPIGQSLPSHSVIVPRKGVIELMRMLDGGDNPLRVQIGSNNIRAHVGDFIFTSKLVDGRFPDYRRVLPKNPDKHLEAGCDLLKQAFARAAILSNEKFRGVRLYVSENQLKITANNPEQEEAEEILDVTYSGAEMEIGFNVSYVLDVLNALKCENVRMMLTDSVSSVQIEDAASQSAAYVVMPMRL

Key:
Experiment in all cases: affinity purification with mass spectrometry
HolD (E. coli) = HolD (E. coli) (UniProt P28632)
[1] = molecular target: T1, NrdB, a ribonuclotide reductase (RNR) subunit (E. coli) (UniProt P69924)
T1 sequence: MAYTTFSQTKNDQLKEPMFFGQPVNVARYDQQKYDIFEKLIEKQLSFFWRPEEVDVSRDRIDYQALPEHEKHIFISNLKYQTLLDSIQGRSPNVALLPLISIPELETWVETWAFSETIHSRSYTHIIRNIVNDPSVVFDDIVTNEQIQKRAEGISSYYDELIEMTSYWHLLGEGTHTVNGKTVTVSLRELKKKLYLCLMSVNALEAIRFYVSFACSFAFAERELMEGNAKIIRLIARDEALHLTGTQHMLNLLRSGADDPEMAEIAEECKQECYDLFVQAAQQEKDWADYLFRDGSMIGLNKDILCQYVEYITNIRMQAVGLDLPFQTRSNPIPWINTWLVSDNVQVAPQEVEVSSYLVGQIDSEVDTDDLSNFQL

DiaA (E. coli) = molecular target: T2, DiaA (E. coli) (UniProt P66817)
T2 sequence: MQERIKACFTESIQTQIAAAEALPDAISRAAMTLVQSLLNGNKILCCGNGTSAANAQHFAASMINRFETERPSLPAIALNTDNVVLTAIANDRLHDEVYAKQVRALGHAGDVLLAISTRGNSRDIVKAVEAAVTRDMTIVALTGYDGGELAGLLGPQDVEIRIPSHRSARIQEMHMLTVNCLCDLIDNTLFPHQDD

SeqA (E. coli) = molecular target: T3, SeqA (E. coli) (UniProt P0AFY8)
T3 sequence: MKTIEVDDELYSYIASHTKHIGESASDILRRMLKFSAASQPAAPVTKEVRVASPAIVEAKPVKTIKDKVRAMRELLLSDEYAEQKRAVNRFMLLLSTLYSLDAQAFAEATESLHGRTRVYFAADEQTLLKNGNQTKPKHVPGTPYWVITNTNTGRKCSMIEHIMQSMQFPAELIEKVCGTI

binding (HolD (E. coli)): binds
binding [1]: binds
Molecule: Ssb (from UniProt P0AGE0 1-178)

binding [1]: binds
Molecule: β sliding clamp of DNA polymerase III (from UniProt P0A988 1-366)

binding (DiaA (E. coli)): binds
binding (SeqA (E. coli)): binds
B1: GalU (enzyme, UniProt P0AEP3 1-302)
chain: MAAINTKVKKAVIPVAGLGTRMLPATKAIPKEMLPLVDKPLIQYVVNECIAAGITEIVLVTHSSKNSIENHFDTSFELEAMLEKRVKRQLLDEVQSICPPHVTIMQVRQGLAKGLGHAVLCAHPVVGDEPVAVILPDVILDEYESDLSQDNLAEMIRRFDETGHSQIMVEPVADVTAYGVVDCKGVELAPGESVPMVGVVEKPKADVAPSNLAIVGRYVLSADIWPLLAKTPPGAGDEIQLTDAIDMLIEKETVEAYHMKGKSHDCGNKLGYMQAFVEYGIRHNTLGTEFKAWLEEEMGIKK

binding (DiaA (E. coli)): binds
binding (SeqA (E. coli)): no binding
B2: DnaA (protein, UniProt P03004 1-467)
chain: MSLSLWQQCLARLQDELPATEFSMWIRPLQAELSDNTLALYAPNRFVLDWVRDKYLNNINGLLTSFCGADAPQLRFEVGTKPVTQTPQAAVTSNVAAPAQVAQTQPQRAAPSTRSGWDNVPAPAEPTYRSNVNVKHTFDNFVEGKSNQLARAAARQVADNPGGAYNPLFLYGGTGLGKTHLLHAVGNGIMARKPNAKVVYMHSERFVQDMVKALQNNAIEEFKRYYRSVDALLIDDIQFFANKERSQEEFFHTFNALLEGNQQIILTSDRYPKEINGVEDRLKSRFGWGLTVAIEPPELETRVAILMKKADENDIRLPGEVAFFIAKRLRSNVRELEGALNRVIANANFTGRAITIDFVREALRDLLALQEKLVTIDNIQKTVAEYYKIKVADLLSKRRSRSVARPRQMAMALAKELTNHSLPEIGDAFGGRDHTTVLHACRKIEQLREESHDIKEDFSNLIRTLSS
